The values that follow come from publication PMC4196185.

By UniProt entry, the sequences of proteins in these tests, tags left out.
UniProt O60346: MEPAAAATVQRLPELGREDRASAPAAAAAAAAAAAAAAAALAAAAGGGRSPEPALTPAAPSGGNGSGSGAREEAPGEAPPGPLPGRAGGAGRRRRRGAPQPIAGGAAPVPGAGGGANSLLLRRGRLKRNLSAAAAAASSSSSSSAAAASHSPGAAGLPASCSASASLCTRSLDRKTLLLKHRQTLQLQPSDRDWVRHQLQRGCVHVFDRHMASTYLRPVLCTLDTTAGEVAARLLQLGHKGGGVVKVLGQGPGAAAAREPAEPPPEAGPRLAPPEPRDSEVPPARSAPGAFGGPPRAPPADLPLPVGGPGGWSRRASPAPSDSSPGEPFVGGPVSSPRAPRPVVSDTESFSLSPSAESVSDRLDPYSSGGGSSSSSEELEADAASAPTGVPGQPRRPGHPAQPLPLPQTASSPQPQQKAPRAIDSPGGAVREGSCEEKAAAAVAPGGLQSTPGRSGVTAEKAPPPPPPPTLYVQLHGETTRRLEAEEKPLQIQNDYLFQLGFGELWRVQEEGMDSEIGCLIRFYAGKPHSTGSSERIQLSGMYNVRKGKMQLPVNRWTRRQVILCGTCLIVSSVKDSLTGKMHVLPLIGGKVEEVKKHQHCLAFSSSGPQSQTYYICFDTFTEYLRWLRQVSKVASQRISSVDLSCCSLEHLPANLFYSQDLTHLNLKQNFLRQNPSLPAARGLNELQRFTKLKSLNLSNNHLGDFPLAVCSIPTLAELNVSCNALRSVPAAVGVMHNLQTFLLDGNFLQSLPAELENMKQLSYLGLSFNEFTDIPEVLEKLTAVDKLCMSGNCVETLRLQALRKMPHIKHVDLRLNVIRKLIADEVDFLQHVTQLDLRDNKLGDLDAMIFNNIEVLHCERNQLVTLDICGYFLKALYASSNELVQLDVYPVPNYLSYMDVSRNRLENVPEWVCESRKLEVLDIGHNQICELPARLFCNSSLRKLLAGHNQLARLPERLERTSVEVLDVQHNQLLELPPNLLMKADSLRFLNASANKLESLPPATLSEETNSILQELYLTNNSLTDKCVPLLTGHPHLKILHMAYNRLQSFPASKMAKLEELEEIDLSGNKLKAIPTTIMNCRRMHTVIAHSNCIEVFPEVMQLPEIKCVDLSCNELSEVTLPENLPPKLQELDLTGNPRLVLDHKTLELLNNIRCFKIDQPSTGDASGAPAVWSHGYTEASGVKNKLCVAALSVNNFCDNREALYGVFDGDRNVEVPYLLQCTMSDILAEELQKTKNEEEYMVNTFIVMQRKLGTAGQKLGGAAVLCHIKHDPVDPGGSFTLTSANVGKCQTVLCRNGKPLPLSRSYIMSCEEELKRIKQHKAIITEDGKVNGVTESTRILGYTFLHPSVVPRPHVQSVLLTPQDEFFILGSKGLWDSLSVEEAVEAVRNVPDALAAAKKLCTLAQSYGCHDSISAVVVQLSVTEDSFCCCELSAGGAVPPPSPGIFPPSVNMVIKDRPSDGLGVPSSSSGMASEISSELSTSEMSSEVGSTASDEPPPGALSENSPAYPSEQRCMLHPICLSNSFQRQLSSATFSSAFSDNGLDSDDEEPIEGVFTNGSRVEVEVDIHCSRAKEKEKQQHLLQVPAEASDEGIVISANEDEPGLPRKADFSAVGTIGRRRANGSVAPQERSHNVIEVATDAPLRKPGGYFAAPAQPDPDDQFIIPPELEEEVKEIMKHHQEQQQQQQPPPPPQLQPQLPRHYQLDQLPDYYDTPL
UniProt O75317: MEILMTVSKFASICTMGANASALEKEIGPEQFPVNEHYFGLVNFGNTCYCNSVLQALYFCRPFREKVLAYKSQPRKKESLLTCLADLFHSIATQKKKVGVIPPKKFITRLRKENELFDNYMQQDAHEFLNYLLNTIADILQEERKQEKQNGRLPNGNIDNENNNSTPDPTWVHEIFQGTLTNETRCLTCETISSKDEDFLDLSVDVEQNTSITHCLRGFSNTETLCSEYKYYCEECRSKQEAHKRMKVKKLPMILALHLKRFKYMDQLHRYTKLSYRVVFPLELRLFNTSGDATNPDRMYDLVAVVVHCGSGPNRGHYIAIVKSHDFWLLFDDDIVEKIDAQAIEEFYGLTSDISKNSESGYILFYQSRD

Results are given in words; binding and its absence hold for the method and conditions named. In cells and extracts the contact can be indirect. Some results given as binding are weak or reduced against the parent protein; the word gives no strength. For part of these data: Where a sequence is shown, tags or fusion partners need not be part of it.

Assay [1] deals with PHLPP (Pleckstrin Homology domain leucine rich repeat protein phosphatase), endogenous in LNCaP (human (endogenous in LNCaP)) (UniProt O60346). Nature of the assay: co-IP; endogenous proteins; LNCaP lysates immunoprecipitated for PHLPP, PHLPPL or with non-specific IgG, 16h at 4°C, Protein G Sepharose; lysis buffer 50 mM Tris pH 7.5, 150 mM NaCl, 1% NP-40; immunoblotting. A general note: A western blot detects proteins with antibodies after separation by electrophoresis.

Assay [2] concerns the target T1, PHLPPL, endogenous in LNCaP (human (endogenous in LNCaP)) (UniProt Q6ZVD8).
T1 sequence: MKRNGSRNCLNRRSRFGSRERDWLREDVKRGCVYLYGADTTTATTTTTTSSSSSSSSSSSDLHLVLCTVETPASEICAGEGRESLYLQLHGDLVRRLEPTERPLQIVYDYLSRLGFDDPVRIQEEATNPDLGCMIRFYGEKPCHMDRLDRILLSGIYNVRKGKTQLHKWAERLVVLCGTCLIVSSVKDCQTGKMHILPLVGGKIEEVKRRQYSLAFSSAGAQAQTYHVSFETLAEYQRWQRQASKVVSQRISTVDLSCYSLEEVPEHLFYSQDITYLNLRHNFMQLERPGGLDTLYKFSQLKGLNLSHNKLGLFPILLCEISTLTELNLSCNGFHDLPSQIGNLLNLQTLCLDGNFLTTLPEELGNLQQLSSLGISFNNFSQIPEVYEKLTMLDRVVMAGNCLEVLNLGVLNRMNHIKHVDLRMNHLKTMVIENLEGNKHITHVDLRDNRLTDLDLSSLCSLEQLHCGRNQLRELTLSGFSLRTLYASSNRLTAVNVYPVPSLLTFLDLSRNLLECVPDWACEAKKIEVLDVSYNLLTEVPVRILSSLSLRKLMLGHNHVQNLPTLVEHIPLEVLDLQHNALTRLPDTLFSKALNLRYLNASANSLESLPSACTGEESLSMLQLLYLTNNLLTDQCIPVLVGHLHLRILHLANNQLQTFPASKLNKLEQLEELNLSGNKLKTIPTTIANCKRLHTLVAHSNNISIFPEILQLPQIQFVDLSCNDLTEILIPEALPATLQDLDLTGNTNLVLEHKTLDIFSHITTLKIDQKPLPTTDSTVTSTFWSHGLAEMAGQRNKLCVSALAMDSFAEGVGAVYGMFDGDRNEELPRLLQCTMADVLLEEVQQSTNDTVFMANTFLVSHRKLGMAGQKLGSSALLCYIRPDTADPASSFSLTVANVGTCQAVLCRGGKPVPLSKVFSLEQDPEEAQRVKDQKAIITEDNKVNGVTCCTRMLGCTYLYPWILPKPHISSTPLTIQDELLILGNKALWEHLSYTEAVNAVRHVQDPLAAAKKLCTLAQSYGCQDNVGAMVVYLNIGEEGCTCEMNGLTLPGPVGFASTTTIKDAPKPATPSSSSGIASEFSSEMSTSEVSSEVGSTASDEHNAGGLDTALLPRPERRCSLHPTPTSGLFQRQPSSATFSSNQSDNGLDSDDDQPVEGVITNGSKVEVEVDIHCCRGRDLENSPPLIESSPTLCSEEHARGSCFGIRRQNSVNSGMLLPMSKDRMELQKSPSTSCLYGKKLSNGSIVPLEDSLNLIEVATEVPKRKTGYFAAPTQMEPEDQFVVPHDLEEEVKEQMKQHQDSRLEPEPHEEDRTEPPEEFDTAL
The description is as above.

The target of assay [3] is T2, HA-PHLPPL (from pHA-PHLPPL) (UniProt Q6ZVD8).
T2 sequence: T1 sequence
Nature of the assay: co-IP; COS-7 cells transfected with plasmids as indicated, 72h; lysates immunoprecipitated with PHLPP or PHLPPL antibody, 16h at 4°C, Protein G Sepharose; lysis buffer 50 mM Tris pH 7.5, 150 mM NaCl, 1% NP-40; immunoblotting.

For “Usp12, endogenous in LNCaP (from UniProt O75317 1-370) (enzyme)”, the binding result in assay [1] and in assay [2] was “binds” throughout.

Consider “Flag-Usp12 wild type (from pFlag-Usp12) (from UniProt O75317 1-370) (enzyme)”, for which the binding result in assay [3] is listed as “binds”.

B1: HA-Flag-WDR20 (from pHA-Flag-WDR20) (protein, UniProt Q8TBZ3 1-569)
chain: MATEGGGKEMNEIKTQFTTREGLYKLLPHSEYSRPNRVPFNSQGSNPVRVSFVNLNDQSGNGDRLCFNVGRELYFYIYKGVRKAADLSKPIDKRIYKGTQPTCHDFNHLTATAESVSLLVGFSAGQVQLIDPIKKETSKLFNEERLIDKSRVTCVKWVPGSESLFLVAHSSGNMYLYNVEHTCGTTAPHYQLLKQGESFAVHTCKSKSTRNPLLKWTVGEGALNEFAFSPDGKFLACVSQDGFLRVFNFDSVELHGTMKSYFGGLLCVCWSPDGKYIVTGGEDDLVTVWSFVDCRVIARGHGHKSWVSVVAFDPYTTSVEEGDPMEFSGSDEDFQDLLHFGRDRANSTQSRLSKRNSTDSRPVSVTYRFGSVGQDTQLCLWDLTEDILFPHQPLSRARTHTNVMNATSPPAGSNGNSVTTPGNSVPPPLPRSNSLPHSAVSNAGSKSSVMDGAIASGVSKFATLSLHDRKERHHEKDHKRNHSMGHISSKSSDKLNLVTKTKTDPAKTLGTPLCPRMEDVPLLEPLICKKIAHERLTVLIFLEDCIVTACQEGFICTWGRPGKVVSFNP
Consider B1, for which the binding entry in assay [3] is on record as “binds”.

B2: WDR20, endogenous in LNCaP (protein, UniProt Q8TBZ3 1-569)
chain: B1 chain
Consider B2, for which the binding entry in assay [1] and in assay [2] was “binds” throughout.
